Assay results taken from US5739104A (Schering Corporation, priority 1995, dated 1998).
Some peptides are written in HELM: one residue between dots, names in brackets for other building blocks, links after the first $.

Experiment: general procedure: solution-phase peptide synthesis; trimethylacetyl (pivaloyl) chloride/4-methylmorpholine for fragment coupling; BO

Row | Substance | step yield (late stage modification step) | other results
1 | Cyclo-depsi-N-methyl-O-benzyl-threonyl-(2-hydroxyl-2-cyclohexylacetyl)-N-methylvalyl-phenylanalyl-N-methylphenylanalyl-prolyl-allo-isoleucyl-N-methylvalyl-leucine | – | cyclisation yield (cyclisation step): 16%
2 | Cyclo-depsi-N-methylthreonyl-(2-hydroxyl-3-methylpentanoyl)-N-methylvalyl-phenylanalyl-N-methylphenylanalyl-prolyl-allo-isoleucyl-N-methylvalyl-leucin | 22% | –
3 | Cyclo-depsi-N-methylthreonyl-(2-hydroxyl-2-cyclohexylacetyl)-N-methylvalyl- phenylanalyl-D-N-methylphenylanalyl-prolyl-allo-isoleucyl-N-methylvalyl-leucine | 49% of yield | –
4 | PEPTIDE1{[MeThr].[R-Hcha].[MeVal].F.[MePhe].P.[aIle].[MeVal].L}$PEPTIDE1,PEPTIDE1,1:R1-9:R2$$$V2.0 | 65% | –
5 | N-Boc-phenylanalyl-N-methylphenylanalyl-prolyl-allo-isoleucyl-N-methylvalyl-leucyl-L-O-Bn-threonyl-(R)-hexahydromandelate-L-methyvaline-O-benzyl ester | – | step yield (coupling step): 61%
